Assay results published in PubChem BioAssay AID588520 (NMMLSC, 2011).
Hit rate of the full screen: of about 1,700 compounds, about 65 (4%) were called active. Rule as the data show it: active = Nile Red retention ratio vs DMSO above about 190%; inactive = the rest. Most of the actives are listed elsewhere, so they are rarer here than in the full data.

test system: Candida albicans drug resistance protein 2 (Cdr2) efflux pump, expressed in S. cerevisiae; assay: Cdr2 pump blockade via Nile Red retention – S. cerevisiae AD/CaCDR2, flow cytometry, cherry pick 1, singleplex, confirmation (AID 588520); conditions: at 10 µM, stronger effect = higher value;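 also: higher ratio means more blocking of Cdr2 efflux of the dye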

Structure (SMILES)	Nile Red retention ratio vs DMSO
CCN(CC)c1ccc([N+](=O)[O-])c2cccnc12	inactive: 112%
O=[N+]([O-])c1cnc2ccc3ccccc3c2c1	inactive: 98.1%
